In PubChem BioAssay AID434947 (Broad Institute, 2010):
About 15 (0.7%) of roughly 2,200 compounds were called active.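 The calls were made as follows: active = fitted half-maximal concentration for loss of luminescence signal no more than a set limit of log units above the top tested concentration; inconclusive = flat fit with 30 to 70% signal loss, or invalid fit; inactive = half-maximal concentration above that set limit.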 The list shows a part of the results.

Assay: ADP-Glo luciferase signal interference – biochemical, luminescence, cell-free, homogeneous, artefact control for GSK3beta inhibitor project, dose response (AID 434947);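 also: kinase-free counter screen of ADP-Glo detection reagents for GSK3beta hits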
Settings: Cell-free ADP-Glo reagents, 5 uM ADP

EC50, inactive:
CCn1c(SCC(=O)Nc2ccccc2)nnc1C1CCCCC1 > 30 µM
Cc1ccc(S(=O)(=O)N2CCN(CC(=O)N/N=C/c3ccco3)CC2)cc1 > 30 µM
O=C(c1cccs1)c1coc2ccc(O)c(CN(CCO)CCO)c12 > 30 µM
Nc1nnnn1/N=C/c1ccc(N2CCCCC2)c([N+](=O)[O-])c1 > 30 µM
NS(=O)(=O)c1ccc(Nc2nc(-c3ccc(O)cc3O)cs2)cc1 > 30 µM
COc1ccc(C(=O)c2coc3ccc(O)cc23)cc1 > 30 µM
O=C1NC(=Nc2ccccc2)S/C1=C\c1cccnc1 > 30 µM
COc1nc(NCCN2CCOCC2)nc(Nc2ccc([N+](=O)[O-])cc2)n1 > 30 µM
COc1ccccc1Nc1nc(NCCO)nc(N)c1[N+](=O)[O-] > 30 µM
CCc1n[nH]c(=S)n1/N=C/C(C)=C\c1ccccc1 > 30 µM
COc1ccc2c(c1)C(=O)C(=O)N2 > 30 µM
CNc1nc(N)c([N+](=O)[O-])c(Nc2cccc(Cl)c2)n1 > 30 µM
COc1ccc2nc3c(cc2c1)c(NC(=O)C1CCCO1)nn3CC(C)C (centres undefined) > 30 µM
CCOc1ccc2ncc(C(=O)c3ccc(OC)cc3)c(N3CCN(CC)CC3)c2c1 > 30 µM
CCN(CC)Cc1c(C(=O)N/N=C/c2cccs2)nnn1-c1nonc1N > 30 µM
Cc1cc(NC(=O)c2noc3c2CCc2ccccc2-3)n(-c2ccccc2)n1 > 30 µM
NC1=NC(=Nc2ccccc2)c2ccccc21 > 30 µM
O=C(COc1ccccc1[N+](=O)[O-])N/N=C/c1cccs1 > 30 µM
CC1CCCCC1NC(=O)CN(C)S(=O)(=O)c1cccc2cccnc12 (centres undefined) > 30 µM
CCN1CCN(Cc2ccc(NC(=O)c3ccc(C)c(/C=C/c4cnc(Nc5cc(N6CCNCC6)nc(C)n5)cn4)c3)cc2C(F)(F)F)CC1 > 30 µM
CCOC(=O)c1ccc(N=c2sc(C(=O)OC)cc(=O)n2Cc2ccco2)cc1 > 30 µM
COc1ccc2occ(C(=O)c3ccc(N=C(C)N(C)C)cc3)c2c1 > 30 µM
O=[N+]([O-])c1ccc(Cl)cc1NCCCN1CCOCC1 > 30 µM
O=C(OCCCOC(=O)c1ccccc1O)c1ccccc1O > 30 µM
CC(C)=CCc1c(O)ccc2c1OC(c1ccc(O)c(O)c1)CC2=O (centres undefined) > 30 µM
CC(=O)c1coc2ccc(OCC(=O)O)cc12 > 30 µM
COc1cc(/C=N\NC(=O)c2ccccc2F)ccc1Oc1ccc([N+](=O)[O-])cn1 > 30 µM
CNC(=O)c1ccccc1NC(=O)c1cccc(S(=O)(=O)N2CCC(C)CC2)c1 > 30 µM
COCCn1c(SCC(=O)NC(C)c2ccccc2)nc2ccccc21 (centres undefined) > 30 µM
Nc1nonc1-n1nnc(C(=O)N/N=C/c2cccc(F)c2)c1CN1CCCC1 > 30 µM
Cc1oc2c(CN(C)C)c(O)ccc2c(=O)c1-c1cscn1 > 30 µM
N#Cc1c(-c2ccccc2)nc(SCC(=O)NC2CCCCC2)[nH]c1=O > 30 µM
COc1cc(/C=N/n2c(C3CCCCC3)n[nH]c2=S)cc(Br)c1O > 30 µM
COCCn1c(SCC(=O)Nc2ccc(Cl)cn2)nc2ccccc21 > 30 µM
N#Cc1c2n(c3c(-c4ccccc4)ncnc13)CCC2 > 30 µM
O=C1NC(=O)c2c(NC(=O)C3CCCO3)cccc21 (centres undefined) > 30 µM
CCOc1ccc(N2C(=O)C(Cl)=C(Nc3ccccc3O)C2=O)cc1 > 30 µM
CCSc1ccc2nnc(-c3cccc(F)c3)n2n1 > 30 µM
NNC(=O)CNC(=O)c1ccc(F)cc1 > 30 µM
CC(=O)C(Sc1ccc2nnc(-c3ccc(F)cc3)n2n1)C(C)=O > 30 µM
CC1=NN(C(=O)CCc2ccc3c(c2)OCO3)C(O)(C(F)(F)F)C1 (centres undefined) > 30 µM
CCOc1ccc(Nc2nc(N)c([N+](=O)[O-])c(NCc3ccccc3)n2)cc1 > 30 µM
O=C(Cn1cc2c(n1)CCCCC2)NC1CCN(Cc2ccccc2)CC1 > 30 µM
Cc1ccc(-c2nnc3ccc(SC(C)C(=O)O)nn23)cc1 (centres undefined) > 30 µM
COc1ccc(OC)c(Nc2nc(NCc3ccco3)nc(N)c2[N+](=O)[O-])c1 > 30 µM
COCCN(CC(=O)NCc1ccccc1)C(=O)CCC(=O)Nc1ccccn1 > 30 µM
Cc1ccc(OCCN(C)C(=O)C2CCC(=O)N(CCCN3CCOCC3)C2)cc1 (centres undefined) > 30 µM
CC(C)C(=O)NC(C)C(c1cccs1)N1CCN(c2ccccc2)CC1 (centres undefined) > 30 µM
CCOC(=O)c1c(S(=O)(=O)NCC(=O)Nc2ccccc2)c(C)n(C)c1C > 30 µM
Cc1ccnc(NC(=O)Cn2cc([N+](=O)[O-])cn2)c1 > 30 µM
CC(C)=CCc1c(O)cc2c(c1O)C(=O)CC(c1ccccc1)O2 (centres undefined) > 30 µM
COc1cccc(-n2c(Cn3nc(C(F)F)cc3C(F)F)n[nH]c2=S)c1 > 30 µM
Nc1nc(Cl)nc2c1ncn2[C@@H]1O[C@H](CO)[C@@H](O)[C@H]1O > 30 µM
CCCN(CCC)Cc1c(C(=O)N/N=C/c2ccc(C)o2)nnn1-c1nonc1N > 30 µM
CCNc1nc(N)nc(-c2cc(Cl)ccc2O)n1 > 30 µM
O=C(NCCO)Nc1ccc2nsnc2c1 > 30 µM
Cc1nn(-c2ccccc2)c(Cl)c1C(=O)NCc1cccs1 > 30 µM
O=C(NCCCN1CCCCC1)c1ccc2c(c1)NC(=O)C(N1CCCCC1)S2 (centres undefined) > 30 µM
Nc1ncc([N+](=O)[O-])c(N2CCCCCC2)n1 > 30 µM

Three consecutive compounds from above, quoted:
EC50, inactive:
CNc1nc(N)c([N+](=O)[O-])c(Nc2cccc(Cl)c2)n1 > 30 µM
COc1ccc2nc3c(cc2c1)c(NC(=O)C1CCCO1)nn3CC(C)C (centres undefined) > 30 µM
CCOc1ccc2ncc(C(=O)c3ccc(OC)cc3)c(N3CCN(CC)CC3)c2c1 > 30 µM
